# Measurements as given in PMC12040169 (PLOS Biology, 2025).
# This is one part of the list.
# System: T1, CTL2-GFP (C. trachomatis L2/434/Bu, GFP-expressing)
# T1 construct: L2/434/Bu, GFP-expressing
# Design: species or system HeLa; Intracellular C. trachomatis growth in HeLa cells, bulk GFP fluorescence relative to DMSO
# Details: bulk GFP, single well; 28.5 h, 10 µM; inhibitor
row,SMILES,% of control remaining [%]
1,CC(C)C(N)c1nnc(SCc2ccccc2Cl)o1 (stereo not drawn) [CBK270121C],132.866
2,CN(C)CCNC(=O)C1CCCN(c2nc3c(-c4ccccc4)csc3c(=O)[nH]2)C1 (stereo not drawn) [CBK215501],164.093
3,O=S(=O)(c1ccc2ccccc2c1)N1CCCCC1CO (stereo not drawn) [CBK200055],85.0121
4,O=C(CC1CC1)N1CCC2(CCN(Cc3ccccc3)C2)C1 (stereo not drawn) [CBK136825],139.082
5,Cn1c(=O)[nH]c2c(nc(-c3ccccc3)n2C)c1=O [CBK287855],139.643
6,O=C1c2ccccc2C2(c3ccccc3)NCCN12 (stereo not drawn) [CBK067098],142.296
7,Cc1ccc(S(=O)(=O)N(CC(=O)NCC2CCCO2)c2ccccc2)cc1 (stereo not drawn) [CBK264140],134.963
8,O=C(CC1CCN(CCc2ccccc2)CC1)Nc1cccc(-n2cccn2)c1 [CBK285951],13.6626
9,COc1ccc(Oc2c(-c3ccc(O)cc3O)n[nH]c2C)cc1 [CBK288239],103.239
10,CCCn1ncc(C(=O)NC(C)c2c(C)nn(CC)c2C)c1C (stereo not drawn) [CBK281532],130.735
11,COc1ccccc1Nc1nc(C)cc(C)c1C(N)=O [CBK287960],156.097
12,COc1cccc(/C=N/c2cc(S(=O)(=O)c3ccc(O)c(/N=C/c4cccc(OC)c4O)c3)ccc2O)c1O [CBK261225],110.003
13,COc1cc(/C=N/NC(=O)Cc2nnc(N)s2)cc(OC)c1OC [CBK262027],100.912
14,CCn1ncc2c1CCCC2NC1CCN(c2ccc(C#N)cc2)C1=O (stereo not drawn) [CBK305200],108.408
15,O=C(OCC#CCSc1nnc(-c2ccncc2)o1)c1sc2ccccc2c1Cl [CBK265677],115.653
16,CCCc1[nH]nc(O)c1CCc1ccc(OC)cc1 [CBK081128],121.53
17,CC(=O)Nc1ccc(C(=O)NC(c2cccs2)C2CCCC2)cc1 (stereo not drawn) [CBK297777],180.283
18,Cc1ccc2nc(-c3ccc(N4C(=O)CC(N5CCC(N6CCCCC6)CC5)C4=O)cc3)sc2c1 (stereo not drawn) [CBK265315],105.799
19,COc1ccc(OCC(=O)Nc2nonc2-c2ccccc2)cc1 [CBK287798],114.166
20,COc1cccn(CC(=O)N2CCc3sc(C(=O)N(C)C)cc3C2)c1=O [CBK307665],117.616
21,Cc1c(C(=O)C2=C(O)C(=O)N(Cc3cccnc3)C2c2cccnc2)cnn1-c1ccccc1 (stereo not drawn) [CBK266543],136.685
22,Cc1noc(C)c1NC(=O)c1ccc2ncccc2c1 [CBK200308],122.266
23,O=c1[nH]c(=O)c2cc(S(=O)(=O)Nc3cccc(-c4ccc(F)cc4)c3)ccc2[nH]1 [CBK286394],144.119
24,Nc1nnc(Cn2c(-c3nonc3N)nc3ccccc32)s1 [CBK263854],107.538
25,O=S(=O)(NN1CCOCC1)c1cc(Cl)cc(Cl)c1O [CBK269279],154.18
26,CN1CCN(c2cc(N3CCN(S(=O)(=O)c4ccc5ccccc5c4)CC3)ccc2[N+](=O)[O-])CC1 [CBK264791],117.505

row,SMILES,% of control remaining [%]
1,O=C(NCc1ccc(OC2CCNCC2)cc1)c1coc2c1C(=O)CCC2 [CBK038944T],120.429
2,O=C(CCn1ncc2ccccc21)N1CCC(c2ccncc2)CC1 [CBK282395],118.34
3,Cc1nn(Cc2cccc(Oc3ccccc3)c2)c(C)c1NC(=O)c1nc2ncccn2n1 [CBK267632],113.655
4,Clc1ccc(COc2nccnc2OC2CCN(CCOc3ccccc3)CC2)cc1Cl [CBK083121T],126.263
5,CCn1cc(-c2cncn2CCCC(C)(C)CO)cn1 [CBK281704],124.064
6,COc1ccc(CNCCN)cc1 [CBK013010],130.545
7,O=C(Cn1c2ccccc2c2ccccc21)N1CCn2cnnc2C1 [CBK283724],114.829
8,Fc1ccccc1CN1CCC(Oc2cncc(OCCN3CCOCC3)n2)C1 (stereo not drawn) [CBK084479],106.7
9,O=C(Nc1ccc(OCc2ccoc2)cc1C(=O)O)c1ccc(Cl)cc1Cl [CBK003768D],94.5093
10,Nc1nc2c3c(c(-c4ccccc4)nc2[nH]1)CCCC3 [CBK020648],95.5637
11,Cc1cc(C)nc(CCNCc2c(C(C)C)nn(C)c2N(C)C)n1 [CBK305159],100.033
12,O=C(COc1ccc2c(c1)OCO2)N1CCN(Cc2ccccc2)CC1 [CBK269977],132.958
13,Cc1ccc(CN(CC2CCOC2)C2CC(C)(C)NC(C)(C)C2)o1 (stereo not drawn) [CBK283174],92.1021
14,Cn1c(Cc2csc(NC(=O)c3ccc(Cl)cc3F)n2)n[nH]c1=S [CBK296635],117.559
15,CC1(NC(=O)c2cccc(OCCN3CCCC3=O)c2)CCC1 [CBK281602],113.239
16,CCCCCc1ccc(S(=O)(=O)N2CCN(C(=O)C3CCCO3)CC2)cc1 (stereo not drawn) [CBK044329],68.4224
17,COc1ccc(CCNC(=O)c2nc3ncccn3n2)cc1OC [CBK268795],176.749
18,CN1CCOc2ccccc2C(=O)NC/C=C/CC2(CCN(C(=O)c3ccc(F)cc3)CC2)C1=O [CBK292055],155.954
19,Cc1ccc(NC(=O)Cn2cnc3sc(C(=O)Nc4ccccc4)c(C)c3c2=O)cc1 [CBK265931],199.615
20,CCOCc1c(O)ccc2c([N+](=O)[O-])c(C)n(-c3ccc(OC)cc3)c12 [CBK095589],93.4485
21,OCc1ccc(-n2ncc(-c3ccc(Br)cc3F)n2)cc1 [CBK112920],108.264
22,CC(C)Cn1cnc2c(Cl)nc3ccccc3c21 [CBK017530],107.564
23,Cc1cccnc1NC(=S)Nc1ccc(S(N)(=O)=O)cc1 [CBK267049],125.893
24,O=C(CSc1ncccc1C(=O)O)c1ccccc1 [CBK273178],112.905
25,Cc1cc(C(=O)NCCc2ccc(S(N)(=O)=O)cc2)ccc1[N+](=O)[O-] [CBK264390],117.773
